Experimental data: publication PMC7260724, “ABAS1 from soybean is a 1R-subtype MYB transcriptional repressor that enhances ABA sensitivity”

Key:
[1] = molecular target: T1, GST-GmABAS1 (UniProt A0A3Q9B5G2); test: competition with a labelled probe; settings: 150 mM KCl, 10 mM Tris pH 7.4, 0.1 mM EDTA, 0.1 mM DTT, EDTA-free protease inhibitor, room temperature 20 min, recombinant protein, residues 1-289, protein details: N-terminal GST (pGEX-4T-1)
T1 sequence (looked up): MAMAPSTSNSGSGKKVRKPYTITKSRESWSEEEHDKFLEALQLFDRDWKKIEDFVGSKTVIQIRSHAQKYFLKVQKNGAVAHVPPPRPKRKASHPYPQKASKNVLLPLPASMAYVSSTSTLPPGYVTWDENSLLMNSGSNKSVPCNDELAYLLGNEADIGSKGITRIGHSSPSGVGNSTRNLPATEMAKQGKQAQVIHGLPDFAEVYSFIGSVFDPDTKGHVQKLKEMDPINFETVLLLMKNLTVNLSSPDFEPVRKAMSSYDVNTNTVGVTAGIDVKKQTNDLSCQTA

[2] = tested on: GST; test: EMSA; settings: tag-only control; 150 mM KCl, 10 mM Tris pH 7.4, 0.1 mM EDTA, 0.1 mM DTT, EDTA-free protease inhibitor; room temperature 20 min; recombinant protein; protein details: GST; label: none (SYBR Green stain)
[3] = molecular target: T1, GST-GmABAS1; test: EMSA; settings: 150 mM KCl, 10 mM Tris pH 7.4, 0.1 mM EDTA, 0.1 mM DTT, EDTA-free protease inhibitor; room temperature 20 min; recombinant protein; residues 1-289; protein details: N-terminal GST (pGEX-4T-1); label: none (SYBR Green stain)

## TGAAAAATCGTGTAAAAAAAAAAACGTG (double strand) [Glyma.01G060300 mutated probe]
[1]; 500 pmol unlabelled mutated competitor vs 10 pmol 6-FAM native probe
  binding result: binds more weakly

## TGAAAAATCGTGTCAGTGTCGCCACGTG (double strand) [Glyma.01G060300 native probe]
[1]; 100-500 pmol unlabelled native competitor vs 10 pmol 6-FAM native probe, label: none (SYBR Green stain)
  binding result: binds
[2]
  binding result: no binding

## TTTTTTTTTTTTTTTTTTTTTTTTTTTT (double strand) [oligo(T)-oligo(A) probe]
[3]
  binding result: binds more weakly

For some of these results: A weaker result is weaker than the reference pair of the same experiment. For some of these results: Protein sequences can lack the tags named with them. For some of these results: The exact form of at least one protein or probe is not confirmed. For some of these results: Negatives hold for the conditions tested. For some of these results: At least one verdict was read from the data and is not stated in words by the source.
